Assay [1] concerns the target mitogen-activated protein kinase 6 (MAPK6) (endogenous, SiHa cells) (human (endogenous in SiHa)) (UniProt Q16659). The experiment in a line: co-IP; endogenous proteins in SiHa cell lysate (weak RIPA buffer); target protein antibody or normal IgG overnight at 4 °C, magnetic beads 2-3 h, Western blotting. Background: A western blot detects proteins with antibodies after separation by electrophoresis.

Chains of the proteins cited; added tags and fusions are not shown.
UniProt Q16659: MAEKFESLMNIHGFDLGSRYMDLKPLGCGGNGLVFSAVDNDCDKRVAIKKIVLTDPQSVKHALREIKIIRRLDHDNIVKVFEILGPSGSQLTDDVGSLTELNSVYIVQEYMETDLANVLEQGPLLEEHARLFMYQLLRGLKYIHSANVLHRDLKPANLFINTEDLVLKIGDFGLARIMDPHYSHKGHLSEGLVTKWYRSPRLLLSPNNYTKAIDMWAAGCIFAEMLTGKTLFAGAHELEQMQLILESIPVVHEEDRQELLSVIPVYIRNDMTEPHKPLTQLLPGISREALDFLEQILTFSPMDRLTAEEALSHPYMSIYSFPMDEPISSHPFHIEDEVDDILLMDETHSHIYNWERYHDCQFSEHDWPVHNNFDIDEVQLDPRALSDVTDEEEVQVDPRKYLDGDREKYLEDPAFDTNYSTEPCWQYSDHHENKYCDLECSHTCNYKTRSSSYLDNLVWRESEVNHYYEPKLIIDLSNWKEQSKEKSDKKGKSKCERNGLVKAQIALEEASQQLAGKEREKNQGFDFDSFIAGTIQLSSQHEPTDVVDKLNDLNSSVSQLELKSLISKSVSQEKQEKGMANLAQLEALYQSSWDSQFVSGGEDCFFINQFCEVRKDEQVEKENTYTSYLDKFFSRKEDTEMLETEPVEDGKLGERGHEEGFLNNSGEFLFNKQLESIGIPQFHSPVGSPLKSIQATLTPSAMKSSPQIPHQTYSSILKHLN

Assay [2] has as its target MAPK6 (HA tag), exogenous (UniProt Q16659). The experiment in a line: co-IP; SiHa cells transfected with plasmids expressing Rab31 (Flag tag) and MAPK6 (HA tag); lysate in weak RIPA buffer, antibody or normal IgG overnight at 4 °C, magnetic beads 2-3 h, Western blotting.

No constants are given. Whether binding was seen depends on the method and setting. Binding seen in cells or lysates may run through a third protein. Some results given as binding are weak or reduced against the parent protein; the word gives no strength. For some assays here: Where a sequence is shown, tags or fusion partners need not be part of it.

B1: Rab31 (endogenous, SiHa cells) (protein, UniProt Q13636 1-195)
chain: MMAIRELKVCLLGDTGVGKSSIVCRFVQDHFDHNISPTIGASFMTKTVPCGNELHKFLIWDTAGQERFHSLAPMYYRGSAAAVIVYDITKQDSFYTLKKWVKELKEHGPENIVMAIAGNKCDLSDIREVPLKDAKEYAESIGAIVVETSAKNAINIEELFQGISRQIPPLDPHENGNNGTIKVEKPTMQASRRCC
Regarding B1, the binding entry in assay [1] is “binds”.

B2: Rab31 (Flag tag), exogenous (protein, UniProt Q13636 1-195)
chain: B1 chain
As to B2, the binding entry in assay [2] was “binds”.
